Results reported in paper PMC7835349 (Communications Biology, 2021).
This continues a long series; more values of the same kind are listed elsewhere.

Test system: telemetered dogs
Experiment: Conscious dog telemetry (QRS amplitude and other cardiovascular parameters, tolerability)
[1] = 1 mg/kg 0.5h infusion, dog 502, 0 hours
[2] = 1 mg/kg 0.5h infusion, dog 502, 0.5 hours
[3] = 1 mg/kg 0.5h infusion, dog 502, 1 hours
[4] = 1 mg/kg 0.5h infusion, dog 502, 1.5 hours
[5] = 1 mg/kg 0.5h infusion, dog 502, 2 hours
[6] = 1 mg/kg 0.5h infusion, dog 502, 3 hours
[7] = 1 mg/kg 0.5h infusion, dog 502, 4 hours
[8] = 1 mg/kg 0.5h infusion, dog 502, 6 hours
[9] = 1 mg/kg 0.5h infusion, dog 502, 8 hours
[10] = 1 mg/kg 0.5h infusion, dog 502, 10 hours
[11] = 1 mg/kg 0.5h infusion, dog 502, 12 hours
[12] = 1 mg/kg 0.5h infusion, dog 502, 16 hours
[13] = 1 mg/kg 0.5h infusion, dog 502, 20 hours
[14] = 1 mg/kg 0.5h infusion, dog 502, -0.5 hours
[15] = 1 mg/kg 0.5h infusion, dog 502, -0.75 hours
[16] = 1 mg/kg 0.5h infusion, dog 502, -1 hours
[17] = 1 mg/kg 0.5h infusion, dog 502, -[…]
[18] = 1 mg/kg 0.5h infusion, dog 502, […]
[19] = 1.7 mg/kg 0.5h infusion, dog 247, 0 hours
[20] = 1.7 mg/kg 0.5h infusion, dog 247, 0.5 hours
[21] = 1.7 mg/kg 0.5h infusion, dog 247, 1 hours
[22] = 1.7 mg/kg 0.5h infusion, dog 247, 1.5 hours

Question: What does the source list for CN(CCO)CCC(CSc1ccccc1)Nc1ccc(S(=O)(=O)NC(=O)c2ccc(N3CCC(C(O)c4ccccc4-c4ccc(Cl)cc4)CC3)cc2)cc1S(=O)(=O)C(F)(F)F (stereo not drawn) [AZD4320]?
Answer: ECG PR interval [1]: 111 ms; ECG QRS duration [1]: 46 ms; Left ventricular -dP/dt (mmHg/s) [1]: -1645 mmHg/s; QRS amplitude (% baseline) [1]: 100 % baseline; Systolic blood pressure (mmHg) [1]: 97 mmHg; ECG PR interval [2]: 109 ms; ECG QRS duration [2]: 44 ms; Left ventricular -dP/dt (mmHg/s) [2]: -1552 mmHg/s; QRS amplitude (% baseline) [2]: 97 % baseline; Systolic blood pressure (mmHg) [2]: 101 mmHg; ECG PR interval [3]: 106 ms; ECG QRS duration [3]: 44 ms; Left ventricular -dP/dt (mmHg/s) [3]: -1574 mmHg/s; QRS amplitude (% baseline) [3]: 92 % baseline; Systolic blood pressure (mmHg) [3]: 103 mmHg; ECG PR interval [4]: 106 ms; ECG QRS duration [4]: 47 ms; Left ventricular -dP/dt (mmHg/s) [4]: -1659 mmHg/s; QRS amplitude (% baseline) [4]: 106 % baseline; Systolic blood pressure (mmHg) [4]: 109 mmHg; ECG PR interval [5]: 118 ms; ECG QRS duration [5]: 47 ms; Left ventricular -dP/dt (mmHg/s) [5]: -1718 mmHg/s; QRS amplitude (% baseline) [5]: 101 % baseline; Systolic blood pressure (mmHg) [5]: 117 mmHg; ECG PR interval [6]: 107 ms; ECG QRS duration [6]: 45 ms; Left ventricular -dP/dt (mmHg/s) [6]: -1837 mmHg/s; QRS amplitude (% baseline) [6]: 57 % baseline; Systolic blood pressure (mmHg) [6]: 115 mmHg; ECG PR interval [7]: 91 ms; ECG QRS duration [7]: 44 ms; Left ventricular -dP/dt (mmHg/s) [7]: -1907 mmHg/s; QRS amplitude (% baseline) [7]: 39 % baseline; Systolic blood pressure (mmHg) [7]: 113 mmHg; ECG PR interval [8]: 86 ms; ECG QRS duration [8]: 43 ms; Left ventricular -dP/dt (mmHg/s) [8]: -1585 mmHg/s; QRS amplitude (% baseline) [8]: 35 % baseline; Systolic blood pressure (mmHg) [8]: 82 mmHg; ECG PR interval [9]: 89 ms; ECG QRS duration [9]: 43 ms; Left ventricular -dP/dt (mmHg/s) [9]: -1652 mmHg/s; QRS amplitude (% baseline) [9]: 46 % baseline; Systolic blood pressure (mmHg) [9]: 96 mmHg; ECG PR interval [10]: 90 ms; ECG QRS duration [10]: 44 ms; Left ventricular -dP/dt (mmHg/s) [10]: -1660 mmHg/s; QRS amplitude (% baseline) [10]: 63 % baseline; Systolic blood pressure (mmHg) [10]: 94 mmHg; ECG PR interval [11]: 88 ms; ECG QRS duration [11]: 45 ms; Left ventricular -dP/dt (mmHg/s) [11]: -1632 mmHg/s; QRS amplitude (% baseline) [11]: 70 % baseline; Systolic blood pressure (mmHg) [11]: 97 mmHg; ECG PR interval [12]: 94 ms; ECG QRS duration [12]: 44 ms; Left ventricular -dP/dt (mmHg/s) [12]: -1720 mmHg/s; QRS amplitude (% baseline) [12]: 77 % baseline; Systolic blood pressure (mmHg) [12]: 102 mmHg; ECG PR interval [13]: 109 ms; ECG QRS duration [13]: 46 ms; Left ventricular -dP/dt (mmHg/s) [13]: -1484 mmHg/s; QRS amplitude (% baseline) [13]: 85 % baseline; Systolic blood pressure (mmHg) [13]: 107 mmHg; ECG PR interval [14]: 115 ms; ECG QRS duration [14]: 46 ms; Left ventricular -dP/dt (mmHg/s) [14]: -1549 mmHg/s; QRS amplitude (% baseline) [14]: 93 % baseline; Systolic blood pressure (mmHg) [14]: 96 mmHg; ECG PR interval [15]: 106 ms; ECG QRS duration [15]: 46 ms; Left ventricular -dP/dt (mmHg/s) [15]: -1723 mmHg/s; QRS amplitude (% baseline) [15]: 102 % baseline; Systolic blood pressure (mmHg) [15]: 95 mmHg; ECG PR interval [16]: 103 ms; ECG QRS duration [16]: 45 ms; Left ventricular -dP/dt (mmHg/s) [16]: -1830 mmHg/s; QRS amplitude (% baseline) [16]: 98 % baseline; Systolic blood pressure (mmHg) [16]: 99 mmHg; ECG PR interval [17]: 119 ms; ECG QRS duration [17]: 47 ms; Left ventricular -dP/dt (mmHg/s) [17]: -1476 mmHg/s; QRS amplitude (% baseline) [17]: 106 % baseline; Systolic blood pressure (mmHg) [17]: 96 mmHg; ECG PR interval [18]: 131 ms; ECG QRS duration [18]: 46 ms; Left ventricular -dP/dt (mmHg/s) [18]: -1553 mmHg/s; QRS amplitude (% baseline) [18]: 83 % baseline; Systolic blood pressure (mmHg) [18]: 104 mmHg; ECG PR interval [19]: 94 ms; ECG QRS duration [19]: 43 ms; Left ventricular -dP/dt (mmHg/s) [19]: -2286 mmHg/s; QRS amplitude (% baseline) [19]: 100 % baseline; Systolic blood pressure (mmHg) [19]: 137 mmHg; ECG PR interval [20]: 90 ms; ECG QRS duration [20]: 43 ms; Left ventricular -dP/dt (mmHg/s) [20]: -2666 mmHg/s; QRS amplitude (% baseline) [20]: 96 % baseline; Systolic blood pressure (mmHg) [20]: 161 mmHg; ECG PR interval [21]: 88 ms; ECG QRS duration [21]: 42 ms; Left ventricular -dP/dt (mmHg/s) [21]: -2357 mmHg/s; QRS amplitude (% baseline) [21]: 81 % baseline; Systolic blood pressure (mmHg) [21]: 152 mmHg; ECG PR interval [22]: 93 ms; ECG QRS duration [22]: 42 ms; Left ventricular -dP/dt (mmHg/s) [22]: -2326 mmHg/s
